Article PMC5203670, “Biosynthesis of selenate reductase in Salmonella enterica: critical roles for the signal peptide and DmsD” (Microbiology, 2016)
These are yes or no findings as the source states them, for the method shown. A result given as binding can be weak or reduced; the word gives no strength. Where a sequence is shown, tags or fusion partners need not be part of it.

Target: T1, T25-DmsD fusion protein (S. enterica DmsD attached to the C-terminus of T25) (Salmonella enterica serovar Typhimurium) (UniProt Q8ZPK0)
T1 sequence: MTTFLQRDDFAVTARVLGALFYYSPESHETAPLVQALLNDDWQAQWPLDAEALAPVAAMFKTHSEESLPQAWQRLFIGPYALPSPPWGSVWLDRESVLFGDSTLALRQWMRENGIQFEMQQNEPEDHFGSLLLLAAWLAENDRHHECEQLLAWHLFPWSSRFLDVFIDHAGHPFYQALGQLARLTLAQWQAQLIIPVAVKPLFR
Experiment: two-hybrid; bacterial adenylate cyclase two-hybrid (spYnfE-T18 and T25-DmsD) in E. coli MAE01 (ΔcyaA); cultures at 30 °C, β-galactosidase activity in Miller units, shown relative to the native pair

binding: binds
Substance: spYnfE-T18 fusion (42-residue YnfE Tat signal peptide at the N-terminus of T18) (Salmonella enterica serovar Typhimurium) (domain or fragment)
